# Results deposited as PubChem BioAssay AID1259300 (Sanger Institute, 2017)
# Purpose: 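Which knock-downs harm HCT15 alone or synergise with the drugs BYL719, cetuximab or trametinib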 (primary screen)
# System: HCT15 colorectal cancer cells
# Knock-down reagent: siRNA pool against human genes
# Challenge: anchor drug or DMSO vehicle added 24 h after seeding: BYL719 1 µM, cetuximab 5 µg/ml, trametinib 10 nM; drug doses chosen to barely affect viability alone
# Detection: 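Cell viability after knock-down, as fraction of non-targeting pool wells averaged over replicates, plus robust z-score for knock-down alone; synergy score per drug (BYL719 1 µM, cetuximab 5 µg/ml, trametinib 10 nM)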
# Reading the numbers: viability z-score, siRNA alone: higher = more viable cells after knock-down; viability vs non-targeting, siRNA alone: higher = more viable cells; synergy score with BYL719 and synergy score with cetuximab and synergy score with trametinib: higher = stronger synergy of knock-down with drug
# Rule for the call: 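a knock-down without drug that drives the robust viability z-score under -3 is active, i.e. essential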
# Meaning of the calls: active = essential: knock-down alone lowers viability (z below -3); inactive = no strong viability loss with knock-down alone
# This is an unselected part of 794 deposited reagents. In the full data, 18 (2.3%) got an active call. 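Calls rest on knock-down alone, not drug synergy; depositor treated synergy scores above 0.15 as synergistic; drug doses alone had little viability effect.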 A number with no mark means an inactive call. Viability is capped at 1. No sequences are given here. Not stated in the record: the amount of reagent, the time to read-out.
gene symbol,"viability z-score, siRNA alone","viability vs non-targeting, siRNA alone",synergy score with BYL719,synergy score with cetuximab,synergy score with trametinib
MAP2K5,0.625,1,-0.0087,0,-0.0984
HIPK1,0.625,1,0.0673,0.0782,0.066
AAK1,-0.0121,0.954,0.24,0.0488,-0.00308
FGFRL1,0.542,0.994,0.194,0.0447,0.0711
TBK1,-0.0794,0.949,0.204,0.122,-0.0178
SHPK,-0.414,0.924,0.07,-0.0582,0.0439
RBM10,-2.54,0.77,0.175,0.145,0.0132
CDK20,-0.824,0.895,0.177,-0.05,0.0014
WNK4,0.179,0.968,-0.0298,0.0746,-0.0175
OXSR1,0.473,0.989,0.316,0.064,0.0413
PKN3,0.225,0.971,0.0393,0.00573,-0.118
RTN4,0.625,1,0.133,0.037,-0.0984
LRRK2,0.625,1,0.0822,0.111,-0.0775
ADCK2,0.257,0.973,0.121,-0.0267,-0.115
SRPK1,-0.297,0.933,0.0983,0.0618,-0.0998
ELF3,-2.12,0.8,0.0624,0.0154,0.0124
CDKL1,0.625,1,0.229,0.0887,0.0464
TSSK3,-0.401,0.925,0.157,-0.0746,-0.148
TNNI3K,-0.399,0.926,0.0694,0.14,-0.0941
FGFR3,-0.772,0.898,0.0251,-0.1,-0.168
EPHB1,-0.0539,0.951,0.177,-0.0494,-0.0469
AK1,0.625,1,0.113,0.0149,-0.0693
LTK,0.183,0.968,0.0799,-0.00568,-0.0742
NME5,0.625,1,0.131,0,0.0221
CKM,-0.549,0.915,0.0928,0.0385,-0.0415
AURKC,0.625,1,0.133,0.0433,0.0469
STK10,-0.0353,0.952,0.0399,-0.0214,0.0236
RFK,-0.0346,0.952,0.2,0.0765,-0.0192
MAP3K2,-0.724,0.902,0.0457,-0.0235,-0.0606
DGKK,0.101,0.962,0.136,0.0143,-0.123
PANK4,-1.86,0.819,0.0666,-0.0295,-0.127
GRK4,-0.663,0.906,0.0982,0.0296,-0.0555
RELA,0.422,0.985,0.146,0.0203,-0.049
TWF2,0.52,0.992,0.134,0.162,-0.0425
HUS1,0.393,0.983,0.125,0.0444,0.154
LMTK1,0.625,1,0.187,0.182,-0.0984
PLK2,0.625,1,0.0588,0.0294,-0.0984
PSTK,0.0703,0.96,-0.00607,0.00431,-0.102
MAP4K4,0.28,0.975,0.254,0.096,0.121
MAPKAPK3,-2.22,0.793,0.189,-0.0682,-0.00291
TNIK,0.625,1,0.24,0,-0.0641
PDPK1,0.625,1,0.139,0.11,0.00635
CHEK2,0.0982,0.962,0.116,0.0953,0.00401
MAP3K5,0.518,0.992,0.183,0.0129,-0.105
CLSPN,-0.108,0.947,0.141,0.0411,0.00279
LMTK3,0.253,0.973,0.119,0.147,0.157
CASP8,0.625,1,-0.0611,0.00722,-0.0984
IRAK2,0.625,1,0.0569,0.000539,-0.0984
BTK,0.625,1,0.173,0.0173,-0.0701
PIK3R5,0.105,0.962,0.181,0.135,0.0256
